± gives the standard deviation of the averaged measurements. The effect of the compound repeats well; differences between the knockouts mostly do not.
System: SKBR3
Assay: relative cell number vs DMSO control (72 h) (% of DMSO); higher = less growth inhibition (more cells)
Procedure: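 QMAP-Seq: a pool of 5 breast cancer cell lines (ZR-75-1, SKBR3, HCC-38, MDA-MB-231, BT-20), each carrying 12 doxycycline-inducible Cas9 sgRNA perturbations (11 knockouts plus non-targeting sgNT), was treated with compounds for 72 h at four 10-fold doses (10 nM-10 uM or 1 nM-1 uM range). Barcodes were amplified and sequenced, and cell number was interpolated from 293T spike-in standard curves. The result is expressed as % of the median of DMSO wells. Two biological replicates.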

[1] = sgRNA knockout: sgATF3, 1000 nM
[2] = sgRNA knockout: sgATF3, 10000 nM
[3] = sgRNA knockout: sgATF4, 1000 nM
[4] = sgRNA knockout: sgATF4, 10000 nM
[5] = sgRNA knockout: sgATF6, 1000 nM
[6] = sgRNA knockout: sgATF6, 10000 nM
[7] = sgRNA knockout: sgATG7, 1000 nM
[8] = sgRNA knockout: sgATG7, 10000 nM
[9] = sgRNA knockout: sgERN1, 1000 nM
[10] = sgRNA knockout: sgERN1, 10000 nM
[11] = sgRNA knockout: sgHSF1, 1000 nM
[12] = sgRNA knockout: sgHSF1, 10000 nM
[13] = sgRNA knockout: sgHSF2, 1000 nM
[14] = sgRNA knockout: sgHSF2, 10000 nM
[15] = sgRNA knockout: sgKEAP1, 100 nM
[16] = sgRNA knockout: sgKEAP1, 1000 nM
[17] = sgRNA knockout: sgKEAP1, 10000 nM
[18] = sgRNA knockout: sgNFE2L2, 10 nM
[19] = sgRNA knockout: sgNFE2L2, 100 nM
[20] = sgRNA knockout: sgNFE2L2, 1000 nM
[21] = sgRNA knockout: sgNFE2L2, 10000 nM
[22] = sgRNA knockout: sgSLC35F2, 10 nM
[23] = sgRNA knockout: sgSLC35F2, 100 nM
[24] = sgRNA knockout: sgSLC35F2, 1000 nM
[25] = sgRNA knockout: sgSLC35F2, 10000 nM
[26] = sgRNA knockout: sgXBP1, 1000 nM
[27] = sgRNA knockout: sgXBP1, 10000 nM

O=C(NOCC(O)CO)c1cc(Br)c(F)c(F)c1Nc1ccc(I)cc1F (configuration not stated)
relative cell number (sgRNA knockout: sgATF3, 10 nM): 122 ± 4.2
relative cell number (sgRNA knockout: sgATF3, 100 nM): 117 ± 29
relative cell number [1]: 91.3 ± 31
relative cell number [2]: 110 ± 4.7
relative cell number (sgRNA knockout: sgATF4, 10 nM): 108 ± 6
relative cell number (sgRNA knockout: sgATF4, 100 nM): 90.9 ± 5.4
relative cell number [3]: 82.6 ± 12
relative cell number [4]: 89.7 ± 6.4
relative cell number (sgRNA knockout: sgATF6, 10 nM): 98.8 ± 13
relative cell number (sgRNA knockout: sgATF6, 100 nM): 71.1 ± 29
relative cell number [5]: 92.7 ± 6.6
relative cell number [6]: 88.8 ± 2.1
relative cell number (sgRNA knockout: sgATG7, 10 nM): 109 ± 38
relative cell number (sgRNA knockout: sgATG7, 100 nM): 92.7 ± 0.12
relative cell number [7]: 80.8 ± 23
relative cell number [8]: 81.1 ± 8.6
relative cell number (sgRNA knockout: sgERN1, 10 nM): 103 ± 21
relative cell number (sgRNA knockout: sgERN1, 100 nM): 104 ± 15
relative cell number [9]: 96.7 ± 12
relative cell number [10]: 84.3 ± 5.9
relative cell number (sgRNA knockout: sgHSF1, 10 nM): 101 ± 11
relative cell number (sgRNA knockout: sgHSF1, 100 nM): 76.5 ± 7.6
relative cell number [11]: 87.8 ± 18
relative cell number [12]: 75.8 ± 3.3
relative cell number (sgRNA knockout: sgHSF2, 10 nM): 121 ± 8.7
relative cell number (sgRNA knockout: sgHSF2, 100 nM): 108 ± 3
relative cell number [13]: 86.21 ± 0.86
relative cell number [14]: 81.6 ± 10
relative cell number (sgRNA knockout: sgKEAP1, 10 nM): 89.7 ± 12
relative cell number [15]: 76.1 ± 2.8
relative cell number [16]: 87 ± 17
relative cell number [17]: 77.5 ± 1.3
relative cell number [18]: 107.1 ± 0.25
relative cell number [19]: 93.6 ± 22
relative cell number [20]: 77.8 ± 10
relative cell number [21]: 96.25 ± 0.6
relative cell number [22]: 93.4 ± 31
relative cell number [23]: 91.3 ± 7.7
relative cell number [24]: 66.5 ± 1.4
relative cell number [25]: 74.8 ± 26
relative cell number (sgRNA knockout: sgXBP1, 10 nM): 109 ± 16
relative cell number (sgRNA knockout: sgXBP1, 100 nM): 104 ± 14
relative cell number [26]: 91.4 ± 10
relative cell number [27]: 105 ± 11

COc1cccc2cc(-c3nc([C@H]4CC[C@H](C(=O)O)CC4)n4ncnc(N)c34)[nH]c12 [OSI027]
relative cell number (sgRNA knockout: sgATF3, 10 nM): 94.7 ± 9.3
relative cell number (sgRNA knockout: sgATF3, 100 nM): 125 ± 20
relative cell number [1]: 68 ± 2.3
relative cell number [2]: 31.4 ± 3.7
relative cell number (sgRNA knockout: sgATF4, 10 nM): 90.2 ± 4.8
relative cell number (sgRNA knockout: sgATF4, 100 nM): 110 ± 28
relative cell number [3]: 60.2 ± 4.7
relative cell number [4]: 39.1 ± 0.44
relative cell number (sgRNA knockout: sgATF6, 10 nM): 73.4 ± 11
relative cell number (sgRNA knockout: sgATF6, 100 nM): 67.7 ± 26
relative cell number [5]: 55.9 ± 1.2
relative cell number [6]: 35.6 ± 15
relative cell number (sgRNA knockout: sgATG7, 10 nM): 114 ± 14
relative cell number (sgRNA knockout: sgATG7, 100 nM): 95.5 ± 30
relative cell number [7]: 47.4 ± 0.71
relative cell number [8]: 40.3 ± 4.4
relative cell number (sgRNA knockout: sgERN1, 10 nM): 96 ± 18
relative cell number (sgRNA knockout: sgERN1, 100 nM): 98 ± 1.7
relative cell number [9]: 63.9 ± 9.6
relative cell number [10]: 43.8 ± 4.2
relative cell number (sgRNA knockout: sgHSF1, 10 nM): 94.4 ± 7
relative cell number (sgRNA knockout: sgHSF1, 100 nM): 92.2 ± 39
relative cell number [11]: 61.3 ± 31
relative cell number [12]: 36.9 ± 9.4
relative cell number (sgRNA knockout: sgHSF2, 10 nM): 79.1 ± 2.4
relative cell number (sgRNA knockout: sgHSF2, 100 nM): 92.3 ± 1.2
relative cell number [13]: 54.5 ± 13
relative cell number [14]: 34.4 ± 6.7
relative cell number (sgRNA knockout: sgKEAP1, 10 nM): 93.7 ± 2.4
relative cell number [15]: 97.5 ± 3.9
relative cell number [16]: 55.4 ± 8.7
relative cell number [17]: 38.9 ± 7.1
relative cell number [18]: 91.3 ± 26
relative cell number [19]: 101 ± 24
relative cell number [20]: 59.4 ± 9.6
relative cell number [21]: 39.6 ± 5.7
relative cell number [22]: 81.3 ± 1.7
relative cell number [23]: 86.3 ± 28
relative cell number [24]: 51.7 ± 2.7
relative cell number [25]: 39.8 ± 12
relative cell number (sgRNA knockout: sgXBP1, 10 nM): 79.6 ± 15
relative cell number (sgRNA knockout: sgXBP1, 100 nM): 107 ± 20
relative cell number [26]: 55.6 ± 1.9
relative cell number [27]: 33.4 ± 11

Clc1ccc(C2(c3ccc(-c4cn[nH]c4)cc3)CCNCC2)cc1 [AT7867]
relative cell number (sgRNA knockout: sgATF3, 10 nM): 94.7 ± 27
relative cell number (sgRNA knockout: sgATF3, 100 nM): 89.6 ± 3.2
relative cell number [1]: 58 ± 4.2
relative cell number [2]: 16.5 ± 2.7
relative cell number (sgRNA knockout: sgATF4, 10 nM): 95.3 ± 6.8
relative cell number (sgRNA knockout: sgATF4, 100 nM): 105 ± 3.8
relative cell number [3]: 75.8 ± 4.5
relative cell number [4]: 11.6 ± 3.7
relative cell number (sgRNA knockout: sgATF6, 10 nM): 78.5 ± 4.3
relative cell number (sgRNA knockout: sgATF6, 100 nM): 82.4 ± 14
relative cell number [5]: 62.9 ± 3.1
relative cell number [6]: 9.27 ± 1.8
relative cell number (sgRNA knockout: sgATG7, 10 nM): 109 ± 29
relative cell number (sgRNA knockout: sgATG7, 100 nM): 77 ± 4.8
relative cell number [7]: 62.2 ± 21
relative cell number [8]: 11.9 ± 0.89
relative cell number (sgRNA knockout: sgERN1, 10 nM): 84.7 ± 17
relative cell number (sgRNA knockout: sgERN1, 100 nM): 127 ± 24
relative cell number [9]: 72.8 ± 9.1
relative cell number [10]: 15.2 ± 0.19
relative cell number (sgRNA knockout: sgHSF1, 10 nM): 94.8 ± 15
relative cell number (sgRNA knockout: sgHSF1, 100 nM): 81.1 ± 12
relative cell number [11]: 52.8 ± 3.8
relative cell number [12]: 12.1 ± 1.5
relative cell number (sgRNA knockout: sgHSF2, 10 nM): 106 ± 2.9
relative cell number (sgRNA knockout: sgHSF2, 100 nM): 88.2 ± 13
relative cell number [13]: 74.8 ± 3.2
relative cell number [14]: 12.2 ± 5.1
relative cell number (sgRNA knockout: sgKEAP1, 10 nM): 86.4 ± 23
relative cell number [15]: 80.9 ± 3.6
relative cell number [16]: 78.4 ± 3
relative cell number [17]: 11 ± 0.76
relative cell number [18]: 100 ± 2
relative cell number [19]: 85.08 ± 0.73
relative cell number [20]: 73.5 ± 23
relative cell number [21]: 11.5 ± 3.8
relative cell number [22]: 101.7 ± 0.16
relative cell number [23]: 84.3 ± 22
relative cell number [24]: 80.2 ± 2.6
relative cell number [25]: 12.3 ± 2.1
relative cell number (sgRNA knockout: sgXBP1, 10 nM): 95.8 ± 9.9
relative cell number (sgRNA knockout: sgXBP1, 100 nM): 108 ± 9.3
relative cell number [26]: 63 ± 4.6
relative cell number [27]: 15.8 ± 1.4
